PubChem BioAssay AID1259308 | NCATS – 2017
Purpose: 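Knock-downs that increase output of a recombinant reporter protein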 (primary screen). Cell system: human HEK293 embryonic kidney cells stably expressing firefly luciferase (HEK-CMV-Luc2-Hygro). Knock-down reagent: single siRNA against human genes, 0.8 pmol siRNA per well. Time to read-out: 72 h. Read-out: 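Reporter luminescence and viable-cell signal on separate replicate plates, given as percent of non-targeting control and median/MAD z-scores, plus per-cell luciferase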. Direction: total luciferase, z-score and total luciferase, % of control: higher = more reporter protein produced. Hit rule: 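An siRNA counts as active if its total luciferase robust z-score exceeds 3; genes with two or more such siRNAs out of three were retested with fresh siRNAs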. Calls: active = raised luciferase; inactive = no rise.
Here is an unselected part of about 59,000 deposited reagents. About 1,510 of them (2.6%) count as active. 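Calls use total luciferase alone and ignore viability, so some active siRNAs may act by altering cell number.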 Further read-outs or replicates are left out here.

PYY (peptide YY) [SID160715204] — total luciferase, z-score: 0.052; total luciferase, % of control: 82.9; Outcome: inactive
PYY (peptide YY) [SID160715205] — total luciferase, z-score: -0.306; total luciferase, % of control: 75.8; Outcome: inactive
PYY (peptide YY) [SID160731575] — total luciferase, z-score: 0.495; total luciferase, % of control: 91.7; Outcome: inactive
RMND5B (required for meiotic nuclear division 5 homolog B) [SID160747957] — total luciferase, z-score: 1.23; total luciferase, % of control: 106; Outcome: inactive
RMND5B (required for meiotic nuclear division 5 homolog B) [SID160747958] — total luciferase, z-score: -0.706; total luciferase, % of control: 67.8; Outcome: inactive
RMND5B (required for meiotic nuclear division 5 homolog B) [SID160747959] — total luciferase, z-score: 0.116; total luciferase, % of control: 84.2; Outcome: inactive
TXLNGY (taxilin gamma Y-linked (pseudogene)) [SID160752544] — total luciferase, z-score: -0.837; total luciferase, % of control: 65.2; Outcome: inactive
TXLNGY (taxilin gamma Y-linked (pseudogene)) [SID160752545] — total luciferase, z-score: -2.1; total luciferase, % of control: 40.2; Outcome: inactive
TXLNGY (taxilin gamma Y-linked (pseudogene)) [SID160752546] — total luciferase, z-score: 1.59; total luciferase, % of control: 113; Outcome: inactive
TXLNGY (taxilin gamma Y-linked (pseudogene)) [SID160761991] — total luciferase, z-score: 0.63; total luciferase, % of control: 94.4; Outcome: inactive
TXLNGY (taxilin gamma Y-linked (pseudogene)) [SID160761992] — total luciferase, z-score: 0.463; total luciferase, % of control: 91.1; Outcome: inactive
TXLNGY (taxilin gamma Y-linked (pseudogene)) [SID160761994] — total luciferase, z-score: -0.268; total luciferase, % of control: 76.6; Outcome: inactive
ZNF853 (zinc finger protein 853) [SID160742104] — total luciferase, z-score: 0.19; total luciferase, % of control: 85.7; Outcome: inactive
ZNF853 (zinc finger protein 853) [SID160742105] — total luciferase, z-score: -1.71; total luciferase, % of control: 47.8; Outcome: inactive
ZNF853 (zinc finger protein 853) [SID160742106] — total luciferase, z-score: -0.329; total luciferase, % of control: 75.3; Outcome: inactive
CCL19 (C-C motif chemokine ligand 19) [SID160716471] — total luciferase, z-score: 0.899; total luciferase, % of control: 99.8; Outcome: inactive
CCL19 (C-C motif chemokine ligand 19) [SID160716474] — total luciferase, z-score: 2.33; total luciferase, % of control: 128; Outcome: inactive
CCL19 (C-C motif chemokine ligand 19) [SID160716475] — total luciferase, z-score: 0.406; total luciferase, % of control: 90; Outcome: inactive
OR52N4 (olfactory receptor family 52 subfamily N member 4) [SID160766364] — total luciferase, z-score: 0.366; total luciferase, % of control: 89.2; Outcome: inactive
OR52N4 (olfactory receptor family 52 subfamily N member 4) [SID160766365] — total luciferase, z-score: 0.621; total luciferase, % of control: 94.2; Outcome: inactive
OR52N4 (olfactory receptor family 52 subfamily N member 4) [SID160766366] — total luciferase, z-score: 0.821; total luciferase, % of control: 98.2; Outcome: inactive

5 of these entries, reformatted.
gene,PubChem SID,"total luciferase, z-score","total luciferase, % of control",Outcome
PYY (peptide YY),SID160715204,0.052,82.9,inactive
PYY (peptide YY),SID160715205,-0.306,75.8,inactive
PYY (peptide YY),SID160731575,0.495,91.7,inactive
RMND5B (required for meiotic nuclear division 5 homolog B),SID160747957,1.23,106,inactive
RMND5B (required for meiotic nuclear division 5 homolog B),SID160747958,-0.706,67.8,inactive

More entries:
SCNN1D (sodium channel epithelial 1 subunit delta) [SID160716425] — total luciferase, z-score: 2.17; total luciferase, % of control: 125; Outcome: inactive
SCNN1D (sodium channel epithelial 1 subunit delta) [SID160724063] — total luciferase, z-score: 0.487; total luciferase, % of control: 91.6; Outcome: inactive
SCNN1D (sodium channel epithelial 1 subunit delta) [SID160724064] — total luciferase, z-score: 0.907; total luciferase, % of control: 99.9; Outcome: inactive
CYP46A1 (cytochrome P450 family 46 subfamily A member 1) [SID160729355] — total luciferase, z-score: -1.42; total luciferase, % of control: 53.6; Outcome: inactive
CYP46A1 (cytochrome P450 family 46 subfamily A member 1) [SID160729356] — total luciferase, z-score: -1.1; total luciferase, % of control: 59.9; Outcome: inactive
CYP46A1 (cytochrome P450 family 46 subfamily A member 1) [SID160729357] — total luciferase, z-score: 0.625; total luciferase, % of control: 94.3; Outcome: inactive
POFUT2 (protein O-fucosyltransferase 2) [SID160730836] — total luciferase, z-score: 0.989; total luciferase, % of control: 102; Outcome: inactive
POFUT2 (protein O-fucosyltransferase 2) [SID160735900] — total luciferase, z-score: 0.588; total luciferase, % of control: 93.6; Outcome: inactive
POFUT2 (protein O-fucosyltransferase 2) [SID160735901] — total luciferase, z-score: 0.504; total luciferase, % of control: 91.9; Outcome: inactive
BCLAF1 (BCL2 associated transcription factor 1) [SID160723046] — total luciferase, z-score: 2.81; total luciferase, % of control: 138; Outcome: inactive
BCLAF1 (BCL2 associated transcription factor 1) [SID160723047] — total luciferase, z-score: 1.11; total luciferase, % of control: 104; Outcome: inactive
BCLAF1 (BCL2 associated transcription factor 1) [SID160732222] — total luciferase, z-score: -0.839; total luciferase, % of control: 65.2; Outcome: inactive
